T/C and survivor count data for 14 compounds are collected here from PubChem BioAssay AID330 (DTP/NCI, 2004).

For the assay, the system named is P388 leukemia ip, CD2F1 mice, survival T/C. Nature of the assay: NCI In Vivo Anticancer Drug Screen. Data for tumor model P388 Leukemia (intraperitoneal) in CD2F1 (CDF1) mice. The conditions noted are these: T/C endpoint: median survival time, higher T/C = longer survival.
Setting [1] is: dose: 200.0 mg/kg/injection, schedule: Q01DX005 (ip), vehicle: Klucel (hydroxypropylcellulose) (HPC).
The mark [2] stands for this setting: dose: 240.0 mg/kg/injection, schedule: Q01DX005 (ip), vehicle: saline with Tween-80.

The list is a part of this screen's results and no random one: it is rich in T/C values a quarter to a half above the control, in often repeated tests (any T/C) and in doses without a T/C. Further doses and runs are listed elsewhere. T/C: endpoint of the treated group in % of that of the vehicle group. Some entries give survivors of the animals treated and no T/C: the source files T/C as zero there, which appears to mark a toxic dose or a test without result, not a measured value. Some survivor counts are full or nearly so, which does not show that the dose was tolerated: survival well below the control is almost never listed, so the zero probably covers shortened survival too. Counts of survivors are from the toxicity check (mostly the fifth day) where no day follows; animals may have died later. Schedule codes are those of the source, read here as Q, the interval in days (D) or hours (H), X, the number of doses. Some entries were tested several times; the values are given in rising order. For survival time, the PubChem record calls one and a half times the control and up active, and a quarter to a half above the control has no call in these data; cut-offs in other NCI protocols can differ. Brackets with × count equal records among those shown.

Turning to `CO[C@H](/C(C)=C/C=C/C(C)=C/c1coc(C)n1)[C@H](C)[C@H]1C[C@@H](O)[C@@]2(C)O[C@H]2/C=C/[C@@H](C)[C@@H]2C[C@@H](CC(=O)O2)C[C@H]2O[C@@H]2C(=O)O1`, the T/C was 133 % of control (dose: 0.04 mg/kg/injection, schedule: Q01DX005 (ip), vehicle: Klucel (hydroxypropylcellulose) (HPC)); 143 % of control (dose: 0.06 mg/kg/injection, schedule: Q01DX005 (ip), vehicle: Klucel (hydroxypropylcellulose) (HPC), evaluated on day 30); 129 % of control (dose: 0.06 mg/kg/injection, schedule: Q01DX005 (ip), vehicle: Klucel (hydroxypropylcellulose) (HPC), evaluated on day 45); 140 % of control (dose: 0.08 mg/kg/injection, schedule: Q01DX005 (ip), vehicle: Klucel (hydroxypropylcellulose) (HPC), evaluated on day 30); 134 % of control (dose: 0.08 mg/kg/injection, schedule: Q01DX005 (ip), vehicle: Klucel (hydroxypropylcellulose) (HPC), evaluated on day 45); 133 % of control (dose: 0.09 mg/kg/injection, schedule: Q01DX005 (ip), vehicle: Klucel (hydroxypropylcellulose) (HPC)). Further, the T/C is, setting by setting: (dose: 0.1 mg/kg/injection, schedule: Q01DX005 (ip), vehicle: Klucel (hydroxypropylcellulose) (HPC)) 137 and 149 % of control; (dose: 0.12 mg/kg/injection, schedule: Q01DX005 (ip), vehicle: Klucel (hydroxypropylcellulose) (HPC)) 147 % of control; (dose: 0.13 mg/kg/injection, schedule: Q01DX005 (ip), vehicle: Klucel (hydroxypropylcellulose) (HPC), evaluated on day 30) 142 and 157 % of control; (dose: 0.13 mg/kg/injection, schedule: Q01DX005 (ip), vehicle: Klucel (hydroxypropylcellulose) (HPC), evaluated on day 45) 132, 139, 143, 144, 150, 154 % of control; (dose: 0.13 mg/kg/injection, schedule: Q01DX005 (ip), vehicle: Klucel (hydroxypropylcellulose) (HPC), evaluated on day 60) 141 % of control; (dose: 0.16 mg/kg/injection, schedule: Q01DX005 (ip), vehicle: Klucel (hydroxypropylcellulose) (HPC), evaluated on day 30) 149 % of control. Besides, the T/C runs as follows: (dose: 0.16 mg/kg/injection, schedule: Q01DX005 (ip), vehicle: Klucel (hydroxypropylcellulose) (HPC), evaluated on day 45) 136, 144, 145, 150, 154, 160 % of control; (dose: 0.16 mg/kg/injection, schedule: Q01DX005 (ip), vehicle: Klucel (hydroxypropylcellulose) (HPC), evaluated on day 60) 148 % of control; (dose: 0.2 mg/kg/injection, schedule: Q01DX005 (ip), vehicle: Klucel (hydroxypropylcellulose) (HPC), evaluated on day 30) 155 and 164 % of control; (dose: 0.2 mg/kg/injection, schedule: Q01DX005 (ip), vehicle: Klucel (hydroxypropylcellulose) (HPC), evaluated on day 45) 145 (2×), 149, 153, 160, 162 % of control; (dose: 0.2 mg/kg/injection, schedule: Q01DX005 (ip), vehicle: Klucel (hydroxypropylcellulose) (HPC), evaluated on day 60) 145 % of control; (dose: 0.3 mg/kg/injection, schedule: Q01DX005 (ip), vehicle: Klucel (hydroxypropylcellulose) (HPC), evaluated on day 30) 158 and 169 % of control. For the same compound, the T/C is, setting by setting: (dose: 0.3 mg/kg/injection, schedule: Q01DX005 (ip), vehicle: Klucel (hydroxypropylcellulose) (HPC), evaluated on day 45) 158, 165 (2×), 170 % of control; (dose: 0.3 mg/kg/injection, schedule: Q01DX005 (ip), vehicle: Klucel (hydroxypropylcellulose) (HPC), evaluated on day 60) 163 % of control; (dose: 80.0 micrograms/kg/injection, schedule: Q01DX005 (ip), vehicle: Klucel (hydroxypropylcellulose) (HPC)) 131 % of control; (dose: 160.0 micrograms/kg/injection, schedule: Q01DX005 (ip), vehicle: Klucel (hydroxypropylcellulose) (HPC)) 129 % of control. For the same compound, the survivor count is, setting by setting: (dose: 0.16 mg/kg/injection, schedule: Q01DX005 (ip), vehicle: Klucel (hydroxypropylcellulose) (HPC)) 6 of 6; (dose: 0.31 mg/kg/injection, schedule: Q01DX005 (ip), vehicle: Klucel (hydroxypropylcellulose) (HPC)) 6 of 6; (dose: 0.62 mg/kg/injection, schedule: Q01DX005 (ip), vehicle: Klucel (hydroxypropylcellulose) (HPC)) 3 of 6; (dose: 1.25 mg/kg/injection, schedule: Q01DX005 (ip), vehicle: Klucel (hydroxypropylcellulose) (HPC)) 2 of 6; (dose: 2.5 mg/kg/injection, schedule: Q01DX005 (ip), vehicle: Klucel (hydroxypropylcellulose) (HPC)) 0 of 6; (dose: 5.0 mg/kg/injection, schedule: Q01DX005 (ip), vehicle: Klucel (hydroxypropylcellulose) (HPC)) 0 of 6. For the same compound, where the note is “dose: 10.0 micrograms/kg/injection, schedule: Q01DX005 (ip), vehicle: Klucel (hydroxypropylcellulose) (HPC)”, the survivor count was 0 of 6.
As for `Cc1nnc2n1-c1ccc(Cl)cc1C(c1ccccc1)=[N+]([O-])C2`, the survivor count (dose: 200.0 mg/kg/injection, schedule: Q01DX009 (ip), vehicle: saline with Tween-80) is reported as 4 of 6.
In the case of `C/C(=N\NC(=S)N1CCC(C)CC1)c1cccc2cccnc12`, the survivor count (dose: 200.0 mg/kg/injection, schedule: Q01DX005 (ip), vehicle: saline with Tween-80) was 5 of 6.
Regarding `O=C1c2ccccc2-c2cn(-c3ccccc3)c3cccc1c23`, the survivor count under setting [1] is 3 of 6.
Regarding `COCCC(=O)NC1CCCC[CH]1[Hg][Cl]` (stereo not given), the survivor count by setting is: (dose: 50.0 mg/kg/injection, schedule: Q04DX003 (ip), vehicle: Klucel (hydroxypropylcellulose) (HPC)) 2 of 6; (dose: 100.0 mg/kg/injection, schedule: Q04DX003 (ip), vehicle: Klucel (hydroxypropylcellulose) (HPC)) 0 of 6; (dose: 200.0 mg/kg/injection, schedule: Q04DX003 (ip), vehicle: Klucel (hydroxypropylcellulose) (HPC)) 0 of 6; (dose: 400.0 mg/kg/injection, schedule: Q04DX003 (ip), vehicle: Klucel (hydroxypropylcellulose) (HPC)) 0 of 6.
Turning to `CC(C)N1COC(c2ccccc2)C1` (stereo not given), the survivor count by setting is: (dose: 100.0 mg/kg/injection, schedule: Q01DX005 (ip), vehicle: saline) 0 of 6 and 2 of 6; (dose: 200.0 mg/kg/injection, schedule: Q01DX005 (ip), vehicle: saline) 1 of 6.
On to `COC(=O)C1=C(C(=O)OC)C2OC1c1cc3ccccc3cc12`, for which the survivor count runs as follows: (dose: 60.0 mg/kg/injection, schedule: Q01DX005 (ip), vehicle: saline with Tween-80) 4 of 6; (dose: 120.0 mg/kg/injection, schedule: Q01DX005 (ip), vehicle: saline with Tween-80) 0 of 6; under setting [2], 0 of 6.
For `C=C1CC(NCC(=O)OCC)=C(O)C1=O`, the survivor count under setting [1] is reported as 2 of 6.
Consider `CCCC/C=C\CCCCCCCCCC1=C(O)C(=O)C=C(OC)C1=O`, for which the survivor count (dose: 51.0 mg/kg/injection, schedule: Q01DX005 (ip), vehicle: Klucel (hydroxypropylcellulose) (HPC)) is on record as 3 of 6; the survivor count (dose: 102.0 mg/kg/injection, schedule: Q01DX005 (ip), vehicle: Klucel (hydroxypropylcellulose) (HPC)) is reported as 0 of 6; the survivor count (dose: 204.0 mg/kg/injection, schedule: Q01DX005 (ip), vehicle: Klucel (hydroxypropylcellulose) (HPC)) is reported as 0 of 6.
For the compound `Cc1cc(C(=O)O)ccc1S(=O)(=O)F`, the survivor count under setting [2] is listed as 3 of 6.
`Cc1cccc(Nc2nnc3nc(-c4ccccc4)c(-c4ccccc4)nn23)c1`: the survivor count (dose: 200.0 mg/kg/injection, schedule: Q01DX001 (ip), vehicle: saline with Tween-80) is recorded as 6 of 6 and the survivor count (dose: 400.0 mg/kg/injection, schedule: Q01DX001 (ip), vehicle: saline with Tween-80) was 6 of 6.
`CCS(=O)(=O)OCCCNCCCOS(=O)(=O)CC`: for the setting “dose: 50.0 mg/kg/injection, schedule: Q01DX001 (ip), vehicle: saline”, the T/C is 136 % of control. Also, the survivor count runs as follows: (dose: 400.0 mg/kg/injection, schedule: Q04DX003 (ip), vehicle: saline) 5 of 6; (dose: 800.0 mg/kg/injection, schedule: Q01DX001 (ip), vehicle: saline) 2 of 6.
Consider `C/C(CCl)=N\NC1=NC2(CCCCC2)P(=O)(NNc2ncccn2)S1` (stereo not given), for which the survivor count is, setting by setting: (dose: 150.0 mg/kg/injection, schedule: Q01DX005 (ip), vehicle: Klucel (hydroxypropylcellulose) (HPC)) 0 of 6; (dose: 240.0 mg/kg/injection, schedule: Q01DX005 (ip), vehicle: Klucel (hydroxypropylcellulose) (HPC)) 0 of 6.
On to `COc1cc2c(cc1OC)-c1c(oc3c(CCC(C)C)c(O)ccc3c1=O)CO2`, for which the survivor count is, setting by setting: (dose: 50.0 mg/kg/injection, schedule: Q01DX005 (ip), vehicle: Klucel (hydroxypropylcellulose) (HPC)) 6 of 6; under setting [1], 6 of 6.
